Test results from ChEMBL document CHEMBL1127414 (J Med Chem, 1994).

Target: T1, Squalene synthase (Rattus norvegicus, UniProt Q02769)
T1 sequence (Q02769 whole entry): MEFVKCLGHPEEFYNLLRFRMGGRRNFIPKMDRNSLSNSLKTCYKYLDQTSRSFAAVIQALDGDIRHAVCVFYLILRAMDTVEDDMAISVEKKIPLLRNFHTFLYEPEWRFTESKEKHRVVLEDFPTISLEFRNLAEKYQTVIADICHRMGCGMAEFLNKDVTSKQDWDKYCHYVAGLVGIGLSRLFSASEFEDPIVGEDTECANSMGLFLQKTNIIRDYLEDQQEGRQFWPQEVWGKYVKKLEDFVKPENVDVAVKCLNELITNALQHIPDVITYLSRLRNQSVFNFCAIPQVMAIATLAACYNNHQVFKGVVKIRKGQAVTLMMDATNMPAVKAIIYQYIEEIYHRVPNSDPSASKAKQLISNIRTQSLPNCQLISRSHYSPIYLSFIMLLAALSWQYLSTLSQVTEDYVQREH
Assay: Tested for inhibition against squalene synthase enzyme in rat liver

C=C(CCC12OC(C(=O)O)C(O)(C(=O)O)C(C(=O)O)(O1)[C@H](O)[C@H]2O)[C@@H](OC(C)=O)[C@H](C)Cc1ccccc1 (stereo partly specified)
IC50: 30 nM
